This is an account of results in PMC3305320.

Assay [1] deals with T1, GST-LOX-PP ΔM3 (not stated (human or mouse cDNA cloned)) (UniProt P28301).
T1 sequence: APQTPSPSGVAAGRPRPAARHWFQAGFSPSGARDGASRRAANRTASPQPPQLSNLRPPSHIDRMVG
The assay can be described thus: pull-down; GST-tagged protein expressed in H1299 cells; lysate in Buffer A (25 mM HEPES-KOH pH 7.2, 150 mM KCl, 2 mM EDTA, 1% Triton X-100) incubated with Glutathione-Sepharose 4B for 2 h at 4°C, washed four times; endogenous bound proteins detected by immunoblot.

In assay [2] the target is T2, GST-LOX-PP WT (not stated (human or mouse cDNA cloned)) (UniProt P28301).
T2 sequence: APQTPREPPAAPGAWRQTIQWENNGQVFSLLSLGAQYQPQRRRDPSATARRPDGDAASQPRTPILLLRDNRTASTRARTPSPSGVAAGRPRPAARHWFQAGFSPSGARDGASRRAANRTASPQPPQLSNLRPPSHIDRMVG
The assay is described as above.

No constants are given. Whether binding was seen depends on the method and setting. In cells and extracts the contact can be indirect. Some binding calls cover weakened binding; strength is not graded here. Tags and fused reporters may be left off the sequences shown.

For the substance c-Raf (from UniProt P04049 1-648), the results for the binding entry in assay [1] and in assay [2] were “no binding” and “binds”, respectively.
